# Entries after “also recorded” stand apart in the source; their conditions may differ.
# Tested on: high cholesterol diet, ApoE*3-Leiden mouse model of atherosclerosis
# Test: Effects on plasma lipoprotein profiles in the high cholesterol diet ApoE*3-Leiden mouse model of atherosclerosis (FIG. 3)
# Format: in vivo
# Text: FIG. 3 is a graph of the effects of atorvastatin and BGM 25136 alone and in combination on plasma lipoprotein profiles in the high cholesterol diet, ApoE*3-Leiden mouse model of atherosclerosis. […] See Delsing et al. for methods.
# The essential elements for combination drug discovery guided by system response profiles are knowledge of SRPs for many human diseases, the availability of SRP-qualified animal models and SRPs for compounds in control animals. The potential benefits of such an approach is exemplified in FIG. 3 for a study performed with hypolipidemic drugs in monotherapy and combined therapy on the regression of atherosclerosis in the ApoE*3-Leiden transgenic mouse.
compound,measurement,value
CC(C)c1c(C(=O)Nc2ccccc2)c(-c2ccccc2)c(-c2ccc(F)cc2)n1CC[C@@H](O)C[C@@H](O)CC(=O)O [atorvastatin],cholesterol across all lipoprotein particle categories (plasma lipoprotein profile),overall lowering of the cholesterol levels; also recorded: lower cholesterol across all particle categories

# Reference: patent US20100057368A1, “Biological Systems Analysis” (priority 2004, published 2010)
